Numbering of substitutions follows the chain as printed. Names may count otherwise. “And” between values parts separate entries of the source, which are not always exact repeats. Equal values may be shown once.
B1: Os.TDO: TDO from Oryza sativa (HIS1), SEQ ID NO:2, polynucleotide codon optimized for dicot expression (protein, listed as Oryza sativa)
chain: MADESWRAPAIVQELAAAGVEEPPSRYLLREKDRSDVKLVAAELPEPLPVVDLSRLDGAEEATKLRVALQNWGFFLLTNHGVEASLMDSVMNLSREFFNQPIERKQKFSNLIDGKNFQIQGYGTDRVVTQDQILDWSDRLHLRVEPKEEQDLAFWPDHPESFRDVLNKYASGTKRIRDDIIQAMAKLLELDEDYFLDRLNEAPAFARFNYYPPCPRPDLVFGIRPHSDGTLLTILLVDKDVSGLQVQRDGKWSNVEATPHTLLINLGDTMEVMCNGIFRSPVHRVVTNAEKERISLAMLYSVNDEKDIEPAAGLLDENRPARYRKVSVEEFRAGIFGKFSRGERYIDSLRI
B2: D08: Os.TDO variant D08, SEQ ID NO:18, 20 amino acid changes relative to Os.TDO (protein)
chain: MADESWRAPALVQELAAKGVEEPPSRYLLREQDRPDVKLVAAELPEPIPVVDLGRLDGAEEATKLRVALQNWGFFLLTNHGIEASLMDDVMNLSREFFNQPIERKQKFSNLIDGKHFQIEGYGTDRVVTQDQVLDWSDRLHLRVEPKEEQDLAFWPDHPESFRDVLHKYASGCKRIRDDIIQAMAKLLELDEDYFLDRFNEAPTFARFNYYPPCPRPDLVFGIRPHSDGGLLTILLVDKDVGGLQVQRDGKWSNVPATPHTLLINLGDTMEVMSNGIFKSPVHRVVTNAEKERISLAMLYSVNDEKDIEPAAGLLDENRPARYRKVSVEEFRAGIFGKFSRGERYIDSLRI
modifications: TDO variant sequence
B3: TDO_6: Os.TDO variant, SEQ ID NO:38, G242S-P256E relative to D08 (protein)
chain: B2 chain with G242S, P256E
modifications: TDO variant sequence
B4: TDO_8: Os.TDO variant, SEQ ID NO:42, Q32K-I48L-V133I-G242S-P256E relative to D08 (protein)
chain: B2 chain with Q32K, I48L, V133I, G242S, P256E
modifications: TDO variant sequence

Tested on: transgenic cotton plants
Experiment: Effect of heat treatment on TDO protein accumulation in cotton plants (ELISA)
Type: in vivo
Conditions: Growth Temperature: 80° F.
Experimental: Cotton is a crop of interest that is often exposed to high temperature growing conditions and thus, selected TDO variants were tested in cotton. Three TDO variants, D08, TDO_6, and TDO_8 were transformed into cotton (along with the Os.TDO control) using similar expression elements in single-cassette vectors or as part of multi-cassette vectors. R2 transgenic cotton plants were then screened for tolerance to mesotrione. Sixteen plants from two events each per construct were sprayed with two rates (2X and 8X) of mesotrione at V3 stage under normal (80° F.) and hot (100° F.) growing conditions. In addition, the effect of heat treatment on TDO accumulation in cotton plants were measured by ELISA. Cotton plants were planted and grown under normal greenhouse conditions (80° F. day/70° F. night) until V3 growth stage. Half of the plants were then moved to a higher temperature growth chamber (100° F. day/82° F. night) for the heat treatment, whereas the remaining half of the plants stayed in the same greenhouse (80° F. day/70° F. night). At day 3 after the plants were placed under different temperature conditions, leaf samples were collected for TDO protein measurement. The plants in 100° F. growth chamber and in 80° F. greenhouse were both sprayed with 2X mesotrione (210 g a.i./ha). Leaf samples were collected again 7 days after mesotrione treatment (DAT: Days After Treatment) for protein assay. Table 5 compares protein levels of the TDO variants in transgenic cotton plants grown under the two tested conditions. The protein levels for the TDO variants were measured at three time points for plants: 1) just before entering the high temperature treatment, 2) three days following placement into control (normal growth temperature) or high temperature (100° F.), and 3) 7 days after a 2X mesotrione spray.

Molecule | TDO Protein Level (ppm Dry Weight), 3 Days Before Mesotrione Spray (80° F.) | TDO Protein Level (ppm Dry Weight), At V3 Stage (80° F.)
B1 | 34 ppm Dry Weight and 50.9 ppm Dry Weight | 41 ppm Dry Weight and 55.4 ppm Dry Weight
B2 | 67.5 ppm Dry Weight and 89.1 ppm Dry Weight | 65.1 ppm Dry Weight and 93.3 ppm Dry Weight
B3 | 57.3 ppm Dry Weight | 51 ppm Dry Weight
B4 | 55.5 ppm Dry Weight | 53.3 ppm Dry Weight

Same assay, conditions: Growth Temperature: 80° F. > 100° F.

Molecule | TDO Protein Level (ppm Dry Weight), 3 Days Before Mesotrione Spray (100° F.)
B1 | 18.9 ppm Dry Weight and 27.5 ppm Dry Weight
B2 | 59.8 ppm Dry Weight and 92 ppm Dry Weight
B3 | 58.8 ppm Dry Weight
B4 | 60 ppm Dry Weight

Same assay, conditions: Growth Temperature: 80° F. > 100° F.; 2X mesotrione (210 g a.i./ha)

Molecule | TDO Protein Level (ppm Dry Weight), 7 Days After Mesotrione Spray (100° F.)
B1 | 14.8 ppm Dry Weight and 24.9 ppm Dry Weight
B2 | 49.6 ppm Dry Weight and 89.7 ppm Dry Weight
B3 | 54.2 ppm Dry Weight
B4 | 48.9 ppm Dry Weight

Same assay, conditions: Growth Temperature: 80° F. > 100° F.; before entering high temperature

Molecule | TDO Protein Level (ppm Dry Weight), At V3 Stage (80° F.)
B1 | 42.5 ppm Dry Weight and 59.3 ppm Dry Weight
B2 | 62.2 ppm Dry Weight and 85.8 ppm Dry Weight
B3 | 50.5 ppm Dry Weight
B4 | 55.2 ppm Dry Weight

Same assay, conditions: Growth Temperature: 80° F.; 2X mesotrione (210 g a.i./ha)

Molecule | TDO Protein Level (ppm Dry Weight), 7 Days After Mesotrione Spray (80° F.)
B1 | 26.4 ppm Dry Weight and 41.5 ppm Dry Weight
B2 | 49 ppm Dry Weight and 75 ppm Dry Weight
B3 | 34.3 ppm Dry Weight
B4 | 45.4 ppm Dry Weight

Same assay, conditions: cotton, 100° F. vs 80° F.

Molecule | TDO protein levels in high temperature treatment relative to normal conditions
B1 | reduction in TDO protein levels
